Measured values taken from PMC7067828, “FAM111A protects replication forks from protein obstacles via its trypsin-like domain”.
Results are given in words; binding and its absence hold for the method and conditions named. Binding seen in cells or lysates may run through a third protein. Some results given as binding are weak or reduced against the parent protein; the word gives no strength.

Sequences of proteins named here, by UniProt entry; tags and fusion partners are left off.
UniProt Q96PZ2: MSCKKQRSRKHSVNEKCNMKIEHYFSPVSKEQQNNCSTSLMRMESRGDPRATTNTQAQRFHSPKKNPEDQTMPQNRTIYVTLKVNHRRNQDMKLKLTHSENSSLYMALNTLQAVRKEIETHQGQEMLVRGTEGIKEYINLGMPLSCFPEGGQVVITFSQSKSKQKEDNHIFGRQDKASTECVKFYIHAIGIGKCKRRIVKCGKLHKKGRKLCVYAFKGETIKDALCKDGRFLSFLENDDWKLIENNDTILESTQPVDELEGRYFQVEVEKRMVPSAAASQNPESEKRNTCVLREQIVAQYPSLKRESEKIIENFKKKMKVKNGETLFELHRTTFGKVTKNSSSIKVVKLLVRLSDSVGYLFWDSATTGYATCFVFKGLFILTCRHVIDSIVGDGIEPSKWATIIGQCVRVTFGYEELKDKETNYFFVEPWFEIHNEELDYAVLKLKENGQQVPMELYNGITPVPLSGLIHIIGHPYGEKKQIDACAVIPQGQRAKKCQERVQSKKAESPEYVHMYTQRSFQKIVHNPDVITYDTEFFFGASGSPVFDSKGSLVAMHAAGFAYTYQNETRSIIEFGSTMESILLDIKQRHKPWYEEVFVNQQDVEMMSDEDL

Target: FAM111A (Family with sequence similarity 111 member A), wild type (human) (UniProt Q96PZ2)
Test: co-IP; 293T cells transfected for 48 h; NP-40 lysis buffer (50 mM Tris-HCl pH 7.4, 150 mM NaCl, 0.1% NP-40) with 41 U/ml Benzonase; lysate (~1 mg protein) on anti-Flag beads 4 h at 4 °C, five washes; Western blotting

Substance: FAM111A (Family with sequence similarity 111 member A), wild type (from UniProt Q96PZ2 1-611)
- binding: binds
